Source: paper PMC10474464, “The mRNA binding-mediated self-regulatory function of small heat shock protein IbpA in γ-proteobacteria is conferred by a conserved arginine” (The Journal of Biological Chemistry, 2023)
No constants are given. Whether binding was seen depends on the method and setting. Some entries that bind do so weakly or less than the wild type.

Columns and labels:
[1] = target: firefly luciferase, heat-denatured [luciferase: P08659]; assay: co-sedimentation; sucrose density gradient centrifugation: purified IbpA (12 μM) and luciferase (3 μM) in buffer F mixed and incubated at 50 °C for 30 min, 10% to 50% (w/v) sucrose gradient; SDS-PAGE and CBB staining; both purified
[2] = target: Cedecea neteri IbpA, wild type (Cedecea neteri); assay: sucrose density gradient centrifugation; purified IbpA (3 μM, dimeric units) alone in buffer F (50 mM Hepes-KOH pH 7.6, 0.1 M KCl, 5 mM DTT, 20 mM Mg-acetate) on a 10% to 30% (w/v) sucrose gradient, SW 41 Ti, 35,000 rpm, 4 °C, 80 min; fractions by SDS-PAGE with Western blot (anti-IbpA) or CBB staining; oligomeric state; both purified

Row | Molecule | binding [1] | binding [2]
1 | Cedecea neteri IbpA, wild type (from UniProt A0A089Q2Q3 1-137) | binds | –
2 | Escherichia coli inclusion body-associated protein A, wild type (natural protein, UniProt P0C054 1-137, looked up, Small heat shock protein IbpA of Escherichia coli, expressed from pCA24N-ibpAEc; also called IbpAEc; IbpAEc-WT; source: E. coli BW25113ΔAB, overexpressed (0.5 mM IPTG), purified (anion exchange chromatography)) MRNFDLSPLYRSAIGFDRLFNHLENNQSQSNGGYPPYNVELVDENHYRIAIAVAGFAESELEITAQDNLLVVKGAHADEQKERTYLYQGIAERNFERKFQLAENIHVRGANLVNGLLYIDLERVIPEAKKPRRIEIN | binds | –
3 | Escherichia coli inclusion body-associated protein A, R93A mutant (natural protein, UniProt P0C054 1-137, looked up, Small heat shock protein IbpA of Escherichia coli with R93A, made by site-directed mutagenesis of pCA24N-ibpAEc; also called IbpAEc-R93A; IbpA-R93A; source: E. coli BW25113ΔAB, overexpressed (0.5 mM IPTG), purified (anion exchange chromatography)) MRNFDLSPLYRSAIGFDRLFNHLENNQSQSNGGYPPYNVELVDENHYRIAIAVAGFAESELEITAQDNLLVVKGAHADEQKERTYLYQGIAEANFERKFQLAENIHVRGANLVNGLLYIDLERVIPEAKKPRRIEIN | binds | –
4 | Cedecea neteri IbpA, wild type (protein, UniProt A0A089Q2Q3 1-137) MRNFDLSPLYRSAIGFDRLFNLLESNQSQSNGGYPPYNVELVDENHYRIAIAVAGFAESELDITAQDNLLIVKGAHADEQQERTYLYQGIAERNFERKFQLAENIHVRGASLVNGLLYIELEREIPESMKPRRIEIN | – | binds
